Results deposited as PubChem BioAssay AID1053208 (Peter MacCallum Cancer Centre, 2014)

Purpose: 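Find knock-downs that sensitise mouse osteosarcoma cells to doxorubicin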 (primary screen)
System: mouse osteosarcoma cells, early-passage culture from an engineered mouse model of fibroblastic bone tumour
Reagent: siRNA pool against mouse genes, 40 nM
Duration: about 120 h (48 h before drug, then 72 h with drug)
Treatment: doxorubicin 100 nM for 72 h, roughly 30-40% inhibitory dose
Detection: 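Luminescent ATP signal taken as viability with or without 100 nM doxorubicin for 72 h; mean of two wells set against non-targeting siRNA and turned into robust z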
Reading the numbers: viability z-score with doxorubicin: higher = more viable cells under doxorubicin; viability z-score without drug: higher = more viable cells with knock-down alone
Rule for the call: 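Called active if knock-down leaves viability unchanged without drug (z within -2 to 2) but lowers it with doxorubicin (z at or under -2)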
Here is one part, drawn at random, of about 17,000 reagents. 788 of them (4.7%) count as active. 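Calls rest on z-score classes alone; an extra cut-off of viability at most 70% of control was not applied to them.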 Not all columns of the deposit are shown.

| Target gene | combined z-score class | viability z-score with doxorubicin | viability z-score without drug | call |
| --- | --- | --- | --- | --- |
| Adprs (ADP-ribosylserine hydrolase) | no change with or without drug | 0.9 | 0.17 | inactive |
| Zcchc12 (zinc finger, CCHC domain containing 12) | high cell count with doxorubicin only | 2.47 | 1.18 | inactive |
| Ppp2cb | no change with or without drug | 1.01 | 0.51 | inactive |
| Or5p66 (olfactory receptor family 5 subfamily P member 66) | no change with or without drug | -1.57 | -0.51 | inactive |
| Slc6a20a | no change with or without drug | 0 | -0.67 | inactive |
| Inf2 (inverted formin, FH2 and WH2 domain containing) | high cell count with doxorubicin only | 2.02 | 0.34 | inactive |
| Tbx1 (T-box 1) | no change with or without drug | -1.35 | 0.17 | inactive |
| Rubcn | no change with or without drug | 1.24 | 0.84 | inactive |
| Gm5087 (predicted gene 5087) | no change with or without drug | 0.79 | -0.51 | inactive |
| Dmbt1 (deleted in malignant brain tumors 1) | no change with or without drug | 0.45 | 1.18 | inactive |
| Ucp1 | high cell count with doxorubicin only | 2.25 | 1.69 | inactive |
| Ovol2 (ovo like zinc finger 2) | no change with or without drug | 0.67 | 1.52 | inactive |
| Unc50 (unc-50 homolog) | no change with or without drug | -0.11 | -0.17 | inactive |
| Abhd2 (abhydrolase domain containing 2) | no change with or without drug | -0.45 | -0.17 | inactive |
| Ppp5c (protein phosphatase 5, catalytic subunit) | high cell count with doxorubicin only | 2.47 | 1.18 | inactive |
| Pcdhga2 (protocadherin gamma subfamily A, 2) | low cell count with doxorubicin only | -2.59 | -0.67 | active |
| Mrgprd (MAS-related GPR, member D) | no change with or without drug | 0.22 | -0.84 | inactive |
| Dnmt3b (DNA methyltransferase 3B) | no change with or without drug | 1.12 | 1.18 | inactive |
| Lrrc49 (leucine rich repeat containing 49) | low cell count without drug only | 1.24 | -2.19 | inactive |
| H2ac18 (H2A clustered histone 18) | high cell count with and without drug | 2.36 | 2.53 | inactive |

Hits, among the entries above:
| Target gene | combined z-score class | viability z-score with doxorubicin | viability z-score without drug | call |
| --- | --- | --- | --- | --- |
| Pcdhga2 (protocadherin gamma subfamily A, 2) | low cell count with doxorubicin only | -2.59 | -0.67 | active |
